# Measured values: the supplement of paper PMC3334620
# In all, about 33,000 sequences were measured (“E-score (-0.5 to 0.5)”: median about -0.016, highest 2% from about 0.3 on). The list shows a part of the results.
# Biological target: T1, Yer184c (UniProt P39961)
# T1 sequence: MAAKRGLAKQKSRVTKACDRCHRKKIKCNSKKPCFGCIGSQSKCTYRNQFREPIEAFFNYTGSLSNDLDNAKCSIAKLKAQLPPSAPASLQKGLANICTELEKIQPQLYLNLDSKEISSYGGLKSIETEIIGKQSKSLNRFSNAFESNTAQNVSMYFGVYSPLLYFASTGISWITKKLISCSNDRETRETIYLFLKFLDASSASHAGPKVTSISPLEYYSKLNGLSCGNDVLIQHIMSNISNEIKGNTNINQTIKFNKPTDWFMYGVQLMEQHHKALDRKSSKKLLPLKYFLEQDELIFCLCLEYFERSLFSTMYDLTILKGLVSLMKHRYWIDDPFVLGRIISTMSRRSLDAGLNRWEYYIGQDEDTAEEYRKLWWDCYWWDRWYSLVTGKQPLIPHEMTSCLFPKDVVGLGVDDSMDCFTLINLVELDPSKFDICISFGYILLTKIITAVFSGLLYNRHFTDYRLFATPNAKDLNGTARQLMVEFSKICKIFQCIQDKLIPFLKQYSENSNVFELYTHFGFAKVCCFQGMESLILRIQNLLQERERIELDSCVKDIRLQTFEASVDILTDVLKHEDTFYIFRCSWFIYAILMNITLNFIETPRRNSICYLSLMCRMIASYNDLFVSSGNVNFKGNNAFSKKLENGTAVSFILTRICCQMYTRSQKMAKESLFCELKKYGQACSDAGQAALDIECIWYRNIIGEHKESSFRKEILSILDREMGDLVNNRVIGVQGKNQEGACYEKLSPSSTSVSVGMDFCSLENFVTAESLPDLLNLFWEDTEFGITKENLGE
# Experiment: PBM E-score (8-mer binding enrichment) (E-score (-0.5 to 0.5)); higher = stronger / more preferred TF binding
# Settings: protein concentration: 100 nM; construct: GST-full length
# Procedure, shortened: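 For each ungapped eight-base word taken together with its reverse complement, the Universal PBM Analysis Suite assigned an E-score. Binding data came from GST-tagged yeast transcription factors, applied at about 100-200 nM, on universal all-10-mer Agilent arrays made double-stranded by primer extension. Fluorescent anti-GST marked bound protein, and scans were normalised with masliner.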
row,Sequence,PBM E-score
1,ATATGCCC,-0.153
2,ATAAAGCA,-0.1
3,ATATCAAG,0.146
4,CATACAGG,-0.117
5,AGATGTAA,0.128
6,CCCCTGAG,-0.296
7,CTATCATC,0.0514
8,ACTGAGGG,-0.329
9,CGGTCCAA,0.0315
10,GTTTTCAA,0.194
11,GGAGCATA,0.0471
12,CCGCCACG,-0.0977
13,CACCGTTC,-0.00343
14,ACTATGGG,-0.181
15,ACTTGGTC,0.0981
16,AGTCGTCC,-0.155
17,ACTGCCAC,-0.148
18,AAGCATAC,0.00296
19,GGCGCTGA,0.0249
20,ATCATGGC,-0.113
21,ACATGTCG,-0.224
22,TAACGGTA,0.0369
23,TACTTTGA,0.0968
24,GGGTCCGA,0.113
25,GGATCGCA,-0.0907

row,Sequence,PBM E-score
1,CATGGAGA,-0.0403
2,CCAGGAGA,-0.149
3,CCTGATAA,0.0644
4,CCCCTAAA,-0.312
5,CAGGCTGC,-0.22
6,GTATTAAA,0.248
7,CATCGCTC,-0.176
8,CCTAACAA,0.168
9,CATAGATA,-0.0363
10,TTCGCGAA,0.279
11,CGGAAAGC,0.282
12,AAACTTAG,-0.0561
13,ATCTGCCC,-0.194
14,TCGATACA,0.133
15,ATTAGGAG,-0.0858
16,CCGATAAC,0.251
17,ACAGTGAT,-0.112
18,AATGCGGG,0.101
19,ATGGAAGC,0.0186
20,CAGACATC,0.0195
21,GTTTTGAA,0.211
22,GGCGGTAA,0.285
23,ATCGCACC,-0.0521
24,CCAAGTGA,-0.0975
25,AAGGTTCC,0.143

row,Sequence,PBM E-score
1,GGCGTACC,0.0326
2,CTTGAATA,0.114
3,CCTCCCAA,-0.207
4,ACGCTGCT,-0.139
5,GAACTAGA,0.201
6,GGAGGAGA,-0.155
7,CAAATTGC,0.0952
8,CCGGTGAC,0.218
9,ACTAGCAC,-0.174
10,CTCCGATA,0.108
11,ATTTTATA,0.273
12,AGTTGTAA,0.119
13,GCTTCTAC,-0.0215
14,AGCAATGG,-0.0509
15,ATGGTGAG,-0.28
16,GACCAGTC,-0.16
17,AGGACAGA,-0.105
18,TTGTCAAA,0.148
19,GTACTCAC,-0.014
20,AAGTAAAG,-0.0673
21,TAGGTAGA,0.0124
22,ATTCCCAG,0.118
23,CCTTCAAA,0.132
24,CGTCTCTA,-0.146
25,ATATGCTA,-0.0512

# A second format for part of the listing above.
row | Sequence | PBM E-score
14 | ACTATGGG | -0.181
15 | ACTTGGTC | 0.0981
16 | AGTCGTCC | -0.155
17 | ACTGCCAC | -0.148

# (listing goes on)

row,Sequence,PBM E-score
1,GCAAATAA,0.214
2,AACCGTCA,-0.162
3,CTGGCGAC,-0.282
4,AACCTTCG,0.112
5,AGCAGACA,-0.168
6,CACAAAGG,-0.113
7,ACGGACAT,0.235
8,CCACAGCC,-0.123
9,CCCAGTCC,-0.167
10,CCCACTGA,-0.149
11,GTGACATA,0.121
12,CTCCAGAG,-0.154
13,CCTCCTAG,-0.125
14,AGGACTGG,-0.178
15,AATTCAAA,0.116
16,ACCAAGGG,-0.121
17,GGGTGTAA,-0.0368
18,ATAGTCAA,0.0249
19,GGTCGCGA,0.0817
20,AGGGTGCC,-0.26
21,CAGCTCGG,0.235
22,GTATCGGA,0.208
23,ACACGAAT,0.122
24,AAGCCAGA,-0.0741
25,AACCTAAT,0.0654

# Pulled one by one from above (4):
row,Sequence,PBM E-score
6,CACAAAGG,-0.113
3,CTGGCGAC,-0.282
8,CCACAGCC,-0.123
2,AACCGTCA,-0.162

# (next part)

row,Sequence,PBM E-score
1,ACTACCGA,-0.0592
2,ATTCCGCG,0.242
3,AATATGAA,0.0316
4,CTGCCTGA,-0.0119
5,CACGGAAA,0.345
6,ATCACAAT,0.0634
7,TAGATGGA,-0.162
8,GAGTCCGC,-0.0485
9,GGACGCAC,-0.128
10,GTAGAATA,0.112
11,TCCACGCA,-0.0144
12,CTAGCAAC,-0.00621
13,ACGTGACG,-0.126
14,AAATAAGG,0.0691
15,AGCTCCAC,-0.247
16,AGGAAGAC,-0.203
17,ACACGATG,-0.156
18,GGTATAAC,-0.069
19,GCATTAAC,0.095
20,ATCGGCGC,0.275
21,ACGCCTCA,-0.0245
22,AGTTTTAG,0.0123
23,GTTACTTA,0.13
24,GCGCCCGA,0.145
25,AAGACGCA,-0.0665

row,Sequence,PBM E-score
1,CACCAGAG,-0.239
2,TAGCGACA,-0.00465
3,ATCCTAAA,-0.068
4,GGACATGA,-0.0116
5,ACAACTAA,0.182
6,ACTGACAA,0.129
7,GCAAGTCA,-0.0698
8,ACCTAATA,0.117
9,TCGGGGCA,-0.0736
10,TCATCGGA,0.259
11,GTGCTTAA,0.116
12,CCAGAAGG,0.0416
13,GACCTCCC,-0.374
14,ACATTTTC,0.0488
15,TAGGATAA,0.00381
16,CGCTAACC,0.00582
17,ATCGTCAC,-0.13
18,AACCTGAC,-0.175
19,AGGACTCA,-0.24
20,AGACCTCA,-0.143
21,ATGGCTCA,-0.167
22,AATGTCCT,-0.151
23,AGGTACTC,-0.0632
24,CACGATCA,0.0142
25,CGCATGCC,0.148

row,Sequence,PBM E-score
1,ACCTGCGG,-0.0065
2,AGCTGAAA,0.178
3,AGTCGGCG,0.138
4,GAAGTTTA,0.229
5,ACTCGTGC,-0.145
6,GAGGGATC,-0.171
7,CCCAACGA,-0.06
8,ACCTTAGT,-0.077
9,GACGACTC,-0.201
10,TAAGCAGA,-0.101
11,CCAACGCA,-0.0422
12,CGACATAA,0.109
13,ACCGATGG,0.0508
14,AGCTATAC,-0.0923
15,GAAGTTGC,-0.153
16,CTCGCAGC,-0.0811
17,GTAGGCCA,-0.017
18,AGATGCTC,-0.00305
19,CAGTGGCG,-0.14
20,ACGTGTTG,0.0028
21,CGTCCCAG,-0.169
22,GCGTCCCC,-0.249
